Results taken from article PMC4532856 (Nature Communications, 2015).

B1: mAb23: monoclonal antibody that interacts with the ECD of GCGR; Fab kindly provided by Genentech (antibody, V domains shown)
VH: EVQLVESGGGLVQPGGSLRLSCAASGFNIYYNYIHWVRQAPGKGLEWVAEFSPYSGSTYYADSVKGRFTISADTSKNTAYLQMNSLRAEDTAVYYCARSAAIVDWYDYFKGFDYWGQGTLVTVSS
VL: DIQMTQSPSSLSASVGDRVTITCRASQSVSSAVAWYQQKPGKAPKLLIYSASSLYSGVPSRFSGSRSGTDFTLTISSLQPEDFATYYCQQYGSYLYTFGQGTKVEIK

What was measured:
GCGR = test: Hydrogen/deuterium exchange (HDX) of ligand-bound wild-type GCGR
[1] = system: H89C/H372C mutant GCGR and wild-type GCGR; test: Differential HDX: apo H89C/H372C mutant GCGR vs peptide antagonist-bound wild-type GCGR; conditions: peptide ligand-bound wild-type GCGR vs apo H89C/H372C mutant GCGR
full-length GCGR = test: Electron microscopy of full-length GCGR-mAb23 Fab complex
[2] = ligand-bound GCGR, D2O buffer, 4 °C, quench pH 2.4, pepsin digestion, LTQ Orbitrap MS, mean ± s.d. of three independent experiments

Molecule | HDX at 10 s, ECD, FLFEKWKL (31–38) (GCGR; [2]) [%] | HDX at 10 s, ECL1, LRTRYSQKIGDDL (198–210) (GCGR; [2]) [%] | HDX at 10 s, ECL3, FVTDEHAQGTLRSAKL (367–382) (GCGR; [2]) [%] | HDX at 10 s, ICL2, ATLPERSF (256–263) (GCGR; [2]) [%] | HDX at 10 s, Stalk, IEVQKEVAKM (128–137) (GCGR; [2]) [%] | HDX at 10 s, TM6, AKSTLTL (348–354) (GCGR; [2]) [%] | HDX protection of ECD αA-helix (F31-L38), TM1 stalk (I128-M137) and ECL1 (L198-L210) (GCGR; peptide-bound compared with small molecule (NNC2648)-bound GCGR, 10 s) | HDX change, ECD N-term and TM1 stalk [1] | HDX change, ECL1 [1] | receptor conformation stabilized (full-length GCGR; EM model) | GCGR domain interaction in EM map (full-length GCGR; negative stain EM)
des-His^1-[Nle^9-Ala^11-Ala^16]-glucagon-NH2 | 3.8±5.4 | 27.2±2.2 | 36.3±2.5 | 56.3±3.3 | 6.5±6.2 | 3.2±2.9 | increased protection (decreased exchange at 10 s) | large decreased exchange | smaller decreased exchange | – | –
B1 | – | – | – | – | – | – | – | – | – | stabilizes GCGR in an open conformation | interacts with the ECD, but does not interact with the 7TM domain of GCGR
